The source of these data is article PMC9121324.

Amino acid sequences for entries named in this document (tags omitted). A change or cut given only in a name is not applied to a line headed by its entry.
UniProt P60953: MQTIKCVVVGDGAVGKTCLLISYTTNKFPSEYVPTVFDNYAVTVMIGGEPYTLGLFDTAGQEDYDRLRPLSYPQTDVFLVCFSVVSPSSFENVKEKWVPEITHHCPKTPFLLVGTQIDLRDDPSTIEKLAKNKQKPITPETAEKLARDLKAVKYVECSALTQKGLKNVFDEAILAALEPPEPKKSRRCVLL

No constants are given. Whether binding was seen depends on the method and setting. In cells and extracts the contact can be indirect. Some entries that bind do so weakly or less than the wild type. Sequences can lack the tags named with a protein.

This experiment deals with T1, Myo1f-GFP (full-length Myosin1f as a GFP fusion) (human) (UniProt O00160).
T1 sequence: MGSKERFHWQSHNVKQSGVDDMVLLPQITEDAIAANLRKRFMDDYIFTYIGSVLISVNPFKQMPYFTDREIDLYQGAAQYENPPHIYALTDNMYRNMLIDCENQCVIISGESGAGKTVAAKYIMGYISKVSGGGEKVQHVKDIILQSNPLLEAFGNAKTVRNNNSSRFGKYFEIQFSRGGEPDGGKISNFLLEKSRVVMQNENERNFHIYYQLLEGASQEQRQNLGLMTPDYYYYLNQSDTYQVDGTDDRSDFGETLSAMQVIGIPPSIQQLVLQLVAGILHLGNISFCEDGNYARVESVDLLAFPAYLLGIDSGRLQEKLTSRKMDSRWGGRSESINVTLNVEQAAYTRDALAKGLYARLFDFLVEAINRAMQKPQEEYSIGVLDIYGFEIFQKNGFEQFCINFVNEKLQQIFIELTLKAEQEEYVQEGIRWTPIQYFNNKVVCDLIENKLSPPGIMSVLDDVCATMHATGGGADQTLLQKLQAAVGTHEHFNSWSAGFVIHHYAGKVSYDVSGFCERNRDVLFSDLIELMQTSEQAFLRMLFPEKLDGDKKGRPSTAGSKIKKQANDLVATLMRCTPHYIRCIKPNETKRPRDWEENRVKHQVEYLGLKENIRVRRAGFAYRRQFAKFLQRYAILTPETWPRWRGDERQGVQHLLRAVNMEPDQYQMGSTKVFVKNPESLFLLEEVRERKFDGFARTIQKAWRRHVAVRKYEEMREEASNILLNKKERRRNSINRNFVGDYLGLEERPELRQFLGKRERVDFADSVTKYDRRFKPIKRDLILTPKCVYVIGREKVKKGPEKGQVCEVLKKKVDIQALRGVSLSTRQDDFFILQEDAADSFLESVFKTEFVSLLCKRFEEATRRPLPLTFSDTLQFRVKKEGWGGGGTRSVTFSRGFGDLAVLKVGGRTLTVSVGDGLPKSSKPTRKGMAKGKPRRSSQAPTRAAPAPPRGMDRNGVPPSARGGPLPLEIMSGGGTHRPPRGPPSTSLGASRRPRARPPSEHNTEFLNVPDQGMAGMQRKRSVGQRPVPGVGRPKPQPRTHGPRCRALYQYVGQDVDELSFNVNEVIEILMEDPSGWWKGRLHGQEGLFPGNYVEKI
As to the kind of experiment: co-IP; co-immunoprecipitation of Myo1f and Cdc42-Q61L (Figure S3B, legend not shown); the methods describe anti-GFP Micro-Beads on lysates of transfected 293T cells.

“mCherry-Cdc42-Q61L (constitutively active mutant of Cdc42) (from UniProt P60953 1-191)”: the binding entry was “binds”.
